Experimental data from patent publication US20240002522A1 (INSERM INSTITUT NATIONAL DE LA SANTE ET DE LA RECHERCHE …, published 2024).
Changes are numbered by the printed parent chain. No constants are given. Whether binding was seen depends on the method and setting. Some binding calls cover weakened binding; strength is not graded here.

T1: human CD25 (human, UniProt P01589 22-272)
T1 construct: In the functional assays it was native on T cells or SUDHL-1 cells; also called huCD25; hCD25
T1 sequence: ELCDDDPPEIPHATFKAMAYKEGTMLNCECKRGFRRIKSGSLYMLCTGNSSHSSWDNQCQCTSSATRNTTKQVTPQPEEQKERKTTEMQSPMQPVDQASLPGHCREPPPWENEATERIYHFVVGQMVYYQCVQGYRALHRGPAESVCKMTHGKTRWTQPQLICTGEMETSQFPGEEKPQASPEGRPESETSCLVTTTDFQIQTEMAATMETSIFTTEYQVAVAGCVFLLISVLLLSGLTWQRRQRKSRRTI

B1: C01 (antibody, V domains shown)
VH: QVQLVESGGGVVQPGRSLRLSCAASGFTFSNHAMAWVRQAPGKGLEWVAVISYDGSNKYYADSVKGRFTISRDNSQNTLYLQMNSLRAEDTAVYYCTTGLNSGYDWGQGTLVTVSS
VL: DIQMTQSPSSLSASVGDRVTITCRASQSISSFLNWYQQKPGEAPRRLIYGTNSLQSGVPSRFSGSGSGTDYTLTISSLQPEDFATYYCQQYTSWPWTFGQGTKLEIK
B2: D01 (antibody, V domains shown)
VH: B1 VH with A61R, S75A, N77S
VL: B1 VL with E42K, Y71F, T92N
B3: G02 (antibody, V domains shown)
VH: B1 VH with S75A, Q76K, L100W
VL: B1 VL with I29V, S30N, F32Y, E42K, T92N
B4: E04 (antibody, V domains shown)
VH: B1 VH with S75A, Q76K, L100W
VL: B1 VL with F32Y, E42K, T92N
B5: B07 (antibody, V domains shown)
VH: B1 VH
VL: B1 VL with S28N, S30N
B6: D05 (antibody, V domains shown)
VH: B1 VH with Q76K, L100W
VL: B1 VL with I29V
B7: B05 (antibody, V domains shown)
VH: B1 VH with A61R, Q76K
VL: B1 VL with S28N, S30N, E42K, N52S, T92N
B8: G01 (antibody, V domains shown)
VH: B1 VH
VL: B1 VL with I29V, E42K, R45K, T92N
B9: F03 (antibody, V domains shown)
VH: B1 VH with K58T, S75A, Q76K, N77S
VL: B1 VL with S28N, I29V, E42K, T92N
B10: G02-2 (antibody, V domains shown)
VH: B1 VH with S75A, Q76K
VL: B1 VL with S30N, E42K, Y71F, T92N
B11: E04-2 (antibody, V domains shown)
VH: B1 VH with S75A, Q76K
VL: B1 VL with S28N, S30N, E42K, N52S, Y71F, T92N
B12: H09 (antibody, V domains shown)
VH: B1 VH
VL: B1 VL with I29V, S31K, E42K, T92N
B13: B12 (antibody, V domains shown)
VH: B1 VH with S56D, S75A, Q76K
VL: B1 VL with S30N

target: T1, human CD25; assay: flow cytometry on HEK293 cells transiently transfected with huCD25, against HEK293 WT

binding	Binder
binds	B1
binds	B2
binds	B3
binds	B4
binds	B5
binds	B6
binds	B7
binds	B8
binds	B9
binds	B10
binds	B11
binds	B12
binds	B13

target: T1, human CD25; assay: flow cytometry (GeoMFI), 0.01 to 500 nM, HEK293 cells transfected with huCD25

binding	Binder
binds	B1
binds	B2
binds	B3
binds	B4
binds	B5
binds	B6
binds	B7
binds	B8
binds	B9
binds	B10
binds	B11
binds	B12
binds	B13

target: T1, human CD25; assay: flow cytometry on HEK293 cells transiently transfected with huCD25; 3-fold dilutions from 500 nM; detection with anti-human IgG (Fc specific) FITC

binding	Binder
binds	B1
binds	B2
binds	B3
binds	B4
binds	B5
binds	B6
binds	B7
binds	B8
binds	B9
binds	B10
binds	B11
binds	B12
binds	B13
